Measurements taken from the supplement of paper PMC12819154, “High-throughput peptide-centric local stability assay extends protein–ligand identification to membrane proteins, tissues and bacteria” (Nature Structural & Molecular Biology, 2025).
Some of the results follow. Most entries show no effect beyond the scatter of the controls.

Chains of the proteins cited; added tags and fusions are not shown. Lines headed by an entry give the natural chain unless they say otherwise; changes in a name come on top.
UniProt Q9BQF6: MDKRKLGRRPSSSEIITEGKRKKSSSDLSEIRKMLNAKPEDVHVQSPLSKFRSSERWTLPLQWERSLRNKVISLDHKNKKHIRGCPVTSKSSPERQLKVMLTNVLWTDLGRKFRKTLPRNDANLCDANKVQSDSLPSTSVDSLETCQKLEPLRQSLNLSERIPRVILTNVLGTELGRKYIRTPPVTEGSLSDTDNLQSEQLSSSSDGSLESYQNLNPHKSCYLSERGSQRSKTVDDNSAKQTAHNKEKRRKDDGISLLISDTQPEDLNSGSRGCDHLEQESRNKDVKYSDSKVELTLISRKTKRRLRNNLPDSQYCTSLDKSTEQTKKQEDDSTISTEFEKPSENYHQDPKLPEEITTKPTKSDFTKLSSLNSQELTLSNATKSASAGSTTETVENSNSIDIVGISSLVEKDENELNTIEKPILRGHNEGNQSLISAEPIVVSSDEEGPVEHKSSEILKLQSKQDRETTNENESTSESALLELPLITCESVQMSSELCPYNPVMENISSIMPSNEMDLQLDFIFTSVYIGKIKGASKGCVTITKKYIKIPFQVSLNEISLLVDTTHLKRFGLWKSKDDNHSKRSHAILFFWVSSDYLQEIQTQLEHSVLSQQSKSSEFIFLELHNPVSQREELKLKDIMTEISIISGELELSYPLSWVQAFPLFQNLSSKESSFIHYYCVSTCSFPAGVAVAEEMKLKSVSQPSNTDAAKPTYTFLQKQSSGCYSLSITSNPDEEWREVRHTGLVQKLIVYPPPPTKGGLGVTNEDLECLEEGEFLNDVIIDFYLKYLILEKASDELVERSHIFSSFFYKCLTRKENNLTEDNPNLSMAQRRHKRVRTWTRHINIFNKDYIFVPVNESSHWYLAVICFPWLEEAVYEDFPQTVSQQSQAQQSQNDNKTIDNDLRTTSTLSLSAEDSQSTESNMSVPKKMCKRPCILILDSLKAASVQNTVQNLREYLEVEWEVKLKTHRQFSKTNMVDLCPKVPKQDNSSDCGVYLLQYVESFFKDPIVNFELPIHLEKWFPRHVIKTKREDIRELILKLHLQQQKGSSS
UniProt Q9BQI6: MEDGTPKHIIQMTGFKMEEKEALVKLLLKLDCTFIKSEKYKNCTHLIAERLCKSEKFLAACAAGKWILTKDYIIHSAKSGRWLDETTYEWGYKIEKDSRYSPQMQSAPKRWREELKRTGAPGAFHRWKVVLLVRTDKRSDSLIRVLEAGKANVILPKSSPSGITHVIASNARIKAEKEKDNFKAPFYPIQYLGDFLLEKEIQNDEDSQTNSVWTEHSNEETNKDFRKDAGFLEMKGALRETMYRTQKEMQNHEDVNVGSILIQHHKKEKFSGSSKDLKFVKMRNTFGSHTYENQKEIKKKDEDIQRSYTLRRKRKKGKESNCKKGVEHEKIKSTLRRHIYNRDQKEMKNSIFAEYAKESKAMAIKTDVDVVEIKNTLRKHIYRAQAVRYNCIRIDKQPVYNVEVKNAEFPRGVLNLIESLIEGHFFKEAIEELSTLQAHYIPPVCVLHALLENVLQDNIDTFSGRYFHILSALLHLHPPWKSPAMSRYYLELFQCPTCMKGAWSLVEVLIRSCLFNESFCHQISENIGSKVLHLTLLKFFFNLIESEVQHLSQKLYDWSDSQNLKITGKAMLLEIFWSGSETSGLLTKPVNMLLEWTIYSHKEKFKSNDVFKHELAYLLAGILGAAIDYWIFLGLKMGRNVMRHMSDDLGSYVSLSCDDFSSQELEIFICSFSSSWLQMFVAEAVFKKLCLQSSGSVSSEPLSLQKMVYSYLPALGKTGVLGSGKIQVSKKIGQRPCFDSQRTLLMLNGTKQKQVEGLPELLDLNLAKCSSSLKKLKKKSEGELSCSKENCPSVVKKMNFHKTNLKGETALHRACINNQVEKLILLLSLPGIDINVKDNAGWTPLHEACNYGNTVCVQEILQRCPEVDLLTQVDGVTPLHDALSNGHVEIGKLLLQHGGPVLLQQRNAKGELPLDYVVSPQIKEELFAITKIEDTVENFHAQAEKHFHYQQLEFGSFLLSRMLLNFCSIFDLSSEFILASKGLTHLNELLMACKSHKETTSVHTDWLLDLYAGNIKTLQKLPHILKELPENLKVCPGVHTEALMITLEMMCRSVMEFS
UniProt Q9BRP8: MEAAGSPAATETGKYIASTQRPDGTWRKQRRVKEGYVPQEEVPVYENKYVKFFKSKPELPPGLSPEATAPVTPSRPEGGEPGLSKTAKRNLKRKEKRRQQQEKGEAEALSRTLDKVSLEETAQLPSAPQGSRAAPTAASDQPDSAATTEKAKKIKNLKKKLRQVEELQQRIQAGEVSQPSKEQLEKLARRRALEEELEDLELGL
UniProt Q9BRT9, whole entry: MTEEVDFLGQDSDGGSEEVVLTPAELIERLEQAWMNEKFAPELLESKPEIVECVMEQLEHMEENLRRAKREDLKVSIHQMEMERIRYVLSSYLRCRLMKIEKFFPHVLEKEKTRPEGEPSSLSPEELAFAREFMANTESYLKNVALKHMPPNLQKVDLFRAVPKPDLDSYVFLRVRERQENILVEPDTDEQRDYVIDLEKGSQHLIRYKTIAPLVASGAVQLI
UniProt Q9BUQ8: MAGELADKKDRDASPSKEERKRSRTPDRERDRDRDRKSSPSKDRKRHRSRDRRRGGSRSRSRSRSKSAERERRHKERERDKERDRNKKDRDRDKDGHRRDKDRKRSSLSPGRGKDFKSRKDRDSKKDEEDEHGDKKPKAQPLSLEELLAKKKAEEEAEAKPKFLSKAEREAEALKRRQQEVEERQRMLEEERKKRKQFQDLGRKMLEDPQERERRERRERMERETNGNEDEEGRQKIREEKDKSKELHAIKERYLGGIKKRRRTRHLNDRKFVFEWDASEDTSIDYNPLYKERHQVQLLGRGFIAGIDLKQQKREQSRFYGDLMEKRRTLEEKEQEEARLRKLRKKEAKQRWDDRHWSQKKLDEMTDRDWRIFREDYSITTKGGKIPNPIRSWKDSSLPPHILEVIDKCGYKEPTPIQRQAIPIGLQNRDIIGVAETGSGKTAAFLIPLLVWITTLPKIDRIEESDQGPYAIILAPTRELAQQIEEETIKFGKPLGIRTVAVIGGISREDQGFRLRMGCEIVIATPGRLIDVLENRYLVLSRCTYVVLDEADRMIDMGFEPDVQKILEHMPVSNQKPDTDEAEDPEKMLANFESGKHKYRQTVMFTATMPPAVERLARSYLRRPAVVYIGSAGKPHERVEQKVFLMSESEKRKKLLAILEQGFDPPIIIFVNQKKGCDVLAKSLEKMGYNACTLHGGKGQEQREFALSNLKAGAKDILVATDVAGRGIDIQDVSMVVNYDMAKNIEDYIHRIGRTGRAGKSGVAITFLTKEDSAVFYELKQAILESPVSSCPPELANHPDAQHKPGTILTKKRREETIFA
UniProt Q9BRK5: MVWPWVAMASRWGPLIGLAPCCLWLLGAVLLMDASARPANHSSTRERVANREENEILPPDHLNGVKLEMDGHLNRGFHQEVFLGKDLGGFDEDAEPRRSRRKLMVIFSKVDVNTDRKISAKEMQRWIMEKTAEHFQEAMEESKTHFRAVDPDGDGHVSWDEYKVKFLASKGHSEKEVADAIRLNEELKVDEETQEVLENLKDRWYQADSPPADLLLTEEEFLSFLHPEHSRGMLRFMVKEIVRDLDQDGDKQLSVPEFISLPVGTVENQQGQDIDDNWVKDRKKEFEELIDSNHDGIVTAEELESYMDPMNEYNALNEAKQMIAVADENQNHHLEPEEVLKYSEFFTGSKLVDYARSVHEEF
UniProt Q9BV29: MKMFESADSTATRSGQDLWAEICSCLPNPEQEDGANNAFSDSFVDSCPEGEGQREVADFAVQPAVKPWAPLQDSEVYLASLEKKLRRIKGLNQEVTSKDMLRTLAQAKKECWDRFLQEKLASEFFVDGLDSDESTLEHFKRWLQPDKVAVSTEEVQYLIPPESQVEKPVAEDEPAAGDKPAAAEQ
UniProt Q99816: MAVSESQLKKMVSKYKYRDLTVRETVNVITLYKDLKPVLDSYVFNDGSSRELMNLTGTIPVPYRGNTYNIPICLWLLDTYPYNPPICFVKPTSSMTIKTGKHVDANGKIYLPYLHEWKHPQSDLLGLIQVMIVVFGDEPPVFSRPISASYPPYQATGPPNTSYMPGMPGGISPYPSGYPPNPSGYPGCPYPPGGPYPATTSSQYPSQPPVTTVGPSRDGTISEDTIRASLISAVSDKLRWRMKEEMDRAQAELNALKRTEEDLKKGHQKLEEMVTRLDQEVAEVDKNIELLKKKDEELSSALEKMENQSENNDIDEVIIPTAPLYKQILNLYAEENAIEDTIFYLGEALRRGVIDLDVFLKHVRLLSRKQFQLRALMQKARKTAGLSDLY
UniProt Q9BQE5: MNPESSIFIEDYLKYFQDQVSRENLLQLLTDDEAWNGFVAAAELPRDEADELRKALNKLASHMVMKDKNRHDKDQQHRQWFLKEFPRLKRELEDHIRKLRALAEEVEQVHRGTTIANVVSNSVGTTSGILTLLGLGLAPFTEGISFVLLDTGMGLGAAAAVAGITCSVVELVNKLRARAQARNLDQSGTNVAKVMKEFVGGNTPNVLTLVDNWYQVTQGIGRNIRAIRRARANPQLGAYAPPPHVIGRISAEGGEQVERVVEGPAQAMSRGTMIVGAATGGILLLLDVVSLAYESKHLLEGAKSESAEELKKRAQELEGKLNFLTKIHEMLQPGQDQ
UniProt Q99614: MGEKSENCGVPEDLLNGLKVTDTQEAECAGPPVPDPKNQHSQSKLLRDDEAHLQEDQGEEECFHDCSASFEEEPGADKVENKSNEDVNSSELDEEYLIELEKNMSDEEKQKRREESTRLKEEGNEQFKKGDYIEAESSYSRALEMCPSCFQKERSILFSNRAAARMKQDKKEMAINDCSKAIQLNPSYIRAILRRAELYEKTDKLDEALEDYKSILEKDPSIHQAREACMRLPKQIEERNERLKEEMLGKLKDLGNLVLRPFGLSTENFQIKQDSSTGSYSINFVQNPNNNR
UniProt Q99871: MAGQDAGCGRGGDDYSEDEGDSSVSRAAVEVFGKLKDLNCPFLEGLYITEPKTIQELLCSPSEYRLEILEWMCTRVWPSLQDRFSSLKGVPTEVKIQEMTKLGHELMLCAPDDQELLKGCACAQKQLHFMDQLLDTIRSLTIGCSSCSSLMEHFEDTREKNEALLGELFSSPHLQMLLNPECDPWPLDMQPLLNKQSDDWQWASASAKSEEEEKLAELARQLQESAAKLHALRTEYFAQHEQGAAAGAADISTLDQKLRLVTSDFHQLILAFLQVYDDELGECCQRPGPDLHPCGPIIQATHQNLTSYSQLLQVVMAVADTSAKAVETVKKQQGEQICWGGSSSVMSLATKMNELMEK

Compound: CN[C@@H]1C[C@H]2O[C@@](C)([C@@H]1OC)n1c3ccccc3c3c4c(c5c6ccccc6n2c5c31)C(=O)NC4 [staurosporine]
Assay: log2 fold change of tryptic peptide abundance, ligand vs vehicle (limited proteolysis) (log2 ratio); higher = more trypsin-susceptible (destabilized)
Settings: ligand concentration: 20 uM; sample: K562 cleared lysate; digestion: 4 min, 22 C (HT-PELSA RT4min, Orbitrap Astral)

Target	log2 fold change
SENP7 (peptide sequence: WTLPLQWER, peptide start residue: 57) (UniProt Q9BQF6)	0.104
UniProt Q9BQI6 (peptide sequence: KHIYRAQAVR, peptide start residue: 379)	0.92
UniProt Q9BRP8 (peptide sequence: RRALEEELEDLELGL, peptide start residue: 190)	-0.411
GINS4 (peptide sequence: IEKFFPHVLEKEK, peptide start residue: 100) (UniProt Q9BRT9)	-0.89
DDX23 (peptide sequence: GIDIQDVSMVVNYDMAK, peptide start residue: 727) (UniProt Q9BUQ8)	0.299
SDF4 (peptide sequence: YSEFFTGSK, peptide start residue: 342) (UniProt Q9BRK5)	-0.116
UniProt Q9BV29 (peptide sequence: LASEFFVDGLDSDESTLEHFKR, peptide start residue: 120)	-0.137
TSG101 (peptide sequence: AQAELNALKR, peptide start residue: 249) (UniProt Q99816)	0.209
UniProt Q9BQE5 (peptide sequence: ELEDHIR, peptide start residue: 91)	0.585
TTC1 (peptide sequence: ALEMCPSCFQKER, peptide start residue: 142) (UniProt Q99614)	0.325
HAUS7 (peptide sequence: QLHFMDQLLDTIR, peptide start residue: 126) (UniProt Q99871)	0.391

At a glance, part of the list above.
Target	log2 fold change
TTC1 (peptide sequence: ALEMCPSCFQKER, peptide start residue: 142) (UniProt Q99614)	0.325
HAUS7 (peptide sequence: QLHFMDQLLDTIR, peptide start residue: 126) (UniProt Q99871)	0.391
